In the test the target is ZNF22 (human (endogenous in hCMEC/D3)) (UniProt P17026). As to the kind of experiment: co-IP; endogenous proteins in cell lysate; protein A/G-MagBeads coupled with anti-ZNF22 and anti-HDAC3 antibodies overnight at 4°C; non-specific IgG as control; Western blot. In general terms: A western blot detects proteins with antibodies after separation by electrophoresis.

Sequences of proteins named here, by UniProt entry; tags and fusion partners are left off.
UniProt P17026: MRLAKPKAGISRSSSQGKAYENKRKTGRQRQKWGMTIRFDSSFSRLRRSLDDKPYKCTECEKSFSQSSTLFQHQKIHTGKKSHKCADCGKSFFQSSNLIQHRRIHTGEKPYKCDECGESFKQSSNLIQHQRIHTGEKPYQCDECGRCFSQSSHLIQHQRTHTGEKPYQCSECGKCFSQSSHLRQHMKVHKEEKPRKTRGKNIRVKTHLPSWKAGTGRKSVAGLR
UniProt O15379: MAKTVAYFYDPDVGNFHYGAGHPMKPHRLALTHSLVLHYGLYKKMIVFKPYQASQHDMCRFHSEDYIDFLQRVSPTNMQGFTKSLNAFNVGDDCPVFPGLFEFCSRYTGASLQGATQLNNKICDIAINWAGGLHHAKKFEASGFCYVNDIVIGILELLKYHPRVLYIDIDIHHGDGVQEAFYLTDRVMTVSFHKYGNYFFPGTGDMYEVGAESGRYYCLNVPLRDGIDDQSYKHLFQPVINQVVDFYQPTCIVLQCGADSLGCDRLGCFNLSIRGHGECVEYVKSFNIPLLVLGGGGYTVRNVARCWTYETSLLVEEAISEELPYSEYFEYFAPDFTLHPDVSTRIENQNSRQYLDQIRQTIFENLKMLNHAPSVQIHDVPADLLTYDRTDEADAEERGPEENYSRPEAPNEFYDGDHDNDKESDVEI

These are yes or no findings as the source states them, for the method shown. Binding seen in cells or lysates may run through a third protein. Some results given as binding are weak or reduced against the parent protein; the word gives no strength.

As to “HDAC3 (from UniProt O15379 1-428) (enzyme)”, the binding result is listed as “binds”.

(Values after publication PMC9742255.)
